Reference: PubChem BioAssay AID2685 (National Center for Advancing Translational Sciences (NCATS), 2010)
Where “and” joins values, the source holds several entries; their conditions need not be identical. Identical values can stand only once. The list shows a part of the results. Further columns of the screen follow, without active or inactive calls. Most of these compounds were active or inconclusive in the main read-out, so they are no random draw. Potencies come from curve fits of mixed quality, noted in brackets.

Test: qHTS Assay for Lipid Storage Modulators in Drosophila S3 Cells;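 on cell number change: cells counted by Cell Tracker Red CMTPX staining in the red channel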
Conditions: BODIPY lipid droplet fluorescence, 18-24 h; for cell number change: measured here: cell count max response, cells fed with added oleic acid
Method in brief: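 Laser-scanning cytometry quantifies lipid droplet accumulation (500–530 nm total intensity; droplet/cell object ratio) in oleic acid-fed (400 uM added) Drosophila S3 cells treated with a concentration series. 20 uM Triacsin C defined 100% inhibition.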

[1] = measured here: lipid fluorescence (Fed channel) AC50, cells fed with added oleic acid
[2] = measured here: cell number channel AC50, cells fed with added oleic acid

Row | SMILES | cell number change | AC50 [1] | AC50 [2]
1 | Cc1nc2ccccc2c(=O)n1-c1cccc([N+](=O)[O-])c1 | 14.2% | 29.1 µM [rising, single point] | –
2 | Cn1cc(C(=O)c2ccccc2)c2ccccc21 | -2.45% | – | 0.00517 µM [falling, full curve, poor fit]
3 | Cc1ccsc1C(=O)C1CCCN(Cc2ccn[nH]2)C1 (stereo unspecified) | 6.59% | 0.00411 µM [rising, full curve, poor fit] | –
4 | O=[N+]([O-])c1ccc(-[n+]2c(-c3ccccc3)cc(-c3ccccc3)cc2-c2ccccc2)cc1 | -29% | 11.6 µM [falling, single point] | –
5 | COc1ccc2[nH]c(C)c(CCN3CCC(=O)C(C)C3C)c2c1 (stereo unspecified) | 17% | 0.00517 µM [rising, full curve, poor fit] | –
6 | COC(=O)C1=C(c2ccc(OC(F)(F)F)cc2)C[C@@H]2CC[C@H]1N2C(=O)NCc1ccc(F)cc1 | -44% | 4.61 µM [falling, single point] | 25.9 µM [falling, single point]
7 | CCOc1cc2c(cc1OCC)-n1cccc1C(c1cccc(F)c1F)NC2 (stereo unspecified) | 56.3% | – | 29.1 µM [rising, single point]
8 | COc1cc(/C=C2\C(=O)NC(=O)N(c3ccccc3)C2=O)cc(OC)c1OC | – | 0.58 µM [falling, full curve] | –
9 | O=c1[nH]c(=S)[nH]c(O)c1N=Nc1cc(S(=O)(=O)Nc2ccc(Cl)cc2)ccc1Cl | -51.9% | 0.58 µM [falling, full curve] | 23.1 µM [falling, partial curve]
10 | O=C(Cn1cnc2ccccc2c1=O)NCC(=O)N1CCC2(CC1)OCCO2 | -9.2% | 1.16 µM [falling, full curve] | 0.231 µM [falling, full curve, poor fit]
11 | Cc1cc(OC(=O)N(C)C)nc(SCc2c(Cl)cccc2Cl)n1 | 21.4% | 6.51 µM [rising, partial curve, poor fit] | –
12 | CC(=O)Nc1ccccc1OC(=O)N(C)C | -25.1% | 0.184 µM [falling, full curve, poor fit] | –
13 | COC(=O)C1=C(c2ccc(F)cc2OCc2ccccc2)C[C@@H]2CC[C@H]1N2C(=O)NCCO | -22.5% | 0.82 µM [falling, single point] | 0.651 µM [falling, full curve, poor fit]
14 | CN1CCN(c2cccc3c2C(=O)c2ccccc2C3=O)CC1 | -18.6% | 8.2 µM [falling, full curve, poor fit] | –
15 | O=c1[nH]c(=O)n(CCC2=CCCCC2)c(O)c1C=NCCCn1ccnc1 | -12.9% | 4.61 µM [rising, partial curve] | –
16 | Cc1ccc(-c2nn(Cc3ccccc3)cc2C=O)cc1 | -18% | 8.2 µM [rising, partial curve] | –
17 | O=c1[nH]c(=O)n(-c2ccccc2F)c(O)c1C=NCCC1=CCCCC1 | -41.2% | 29.1 µM [falling, single point] | 29.1 µM [falling, single point]
18 | Cc1cccc(N2CCc3c2nc2ccccc2c3N)c1 | 9.74% and -22% | 0.517 µM [rising, full curve] | 0.146 µM [rising, full curve, poor fit]
19 | CCOC(=O)CN1C(=O)C2(C(C#N)=C(N)Oc3ccccc32)C(C(=O)OC)=C1C (stereo unspecified) | -63.5% | 1.16 µM [falling, partial curve, poor fit] | 5.8 µM [falling, full curve]

Row | SMILES | cell number change | AC50 [1] | AC50 [2]
20 | COc1ccc(C(CNC(=O)Cc2ccc(Cl)c(Cl)c2)N2CCCCC2)cc1 (stereo unspecified) | 40.1% | 0.259 µM [rising, full curve, poor fit] | 29.1 µM [rising, single point]
21 | CCCCc1nc2ccccc2c(=O)n1-c1ccc(O)cc1 | -35% | 29.1 µM [falling, single point] | 18.4 µM [falling, single point]
22 | CN1C(=O)C(=Cc2ccccc2OS(=O)(=O)c2ccccc2)C(=O)N(C)C1=O | -11.6% | – | –
23 | Cc1cccc(CCNCc2cc3ccc(C)cc3[nH]c2=O)c1 | -33.3% | – | 16.4 µM [falling, single point]
24 | O=C1NC(=O)C(=Cc2csc3ccccc23)C(=O)N1 | -8.15% | 3.26 µM [falling, single point] | –
25 | CCOc1cccc(N2C(=O)/C(=C/c3ccco3)C(=O)NC2=S)c1 | -11.7% | 2.91 µM [rising, partial curve] | –
26 | N[C@@H](Cc1ccc(N(CCCl)CCCl)cc1)C(=O)O | 38.3% | 11.6 µM [rising, partial curve, poor fit] | 10.3 µM [rising, partial curve, poor fit]
27 | CC(C)=CCOc1c2occc2cc2ccc(=O)oc12 | -0.107% | 0.517 µM [rising, full curve] | 0.184 µM [rising, full curve]
28 | Cc1[nH]c2ccccc2c1CCNCc1ccco1 | -8.06% | – | –
29 | CCOc1cc(C=C2C(=O)NC(=O)NC2=O)ccc1OS(=O)(=O)c1ccccc1 | 68.3% | 6.51 µM [falling, single point] | –
30 | CCn1cc(C(=O)N2CCC3(CC2)OCCO3)c(=O)c2cc(S(=O)(=O)N3CCCC3)ccc21 | – | – | 4.61 µM [falling, single point]
31 | CCCCn1c(NC(=O)c2ccco2)c(C(=O)OCC)c2nc3ccccc3nc21 | -5.46% | 2.31 µM [rising, partial curve] | –
32 | COc1cc(C(CN)CC(=O)O)ccc1O (stereo unspecified) | -1.98% | – | –
33 | OC1CCCCC1N1CCC(c2ccccc2)CC1 (stereo unspecified) | – | 0.231 µM [rising, full curve] | 0.461 µM [rising, single point]
34 | COc1ccc(C(O)c2cc(OC)ccc2OP(=O)(N(C)C)N(C)C)cc1 (stereo unspecified) | 40% | – | 29.1 µM [rising, single point]
35 | COC(=O)C1=C(c2ccc(OC)c(OC)c2)C[C@@H]2CC[C@H]1N2C(=O)NCCOc1ccc(OC)cc1 | -3.73% | – | –
36 | CCC(=O)CC(c1ccccc1)c1c(O)c2ccccc2sc1=O (stereo unspecified) | -5.9% | 0.231 µM [falling, full curve] | –
37 | CCC1(C)CC(CCNCc2ccc(N(C)C)cc2)(c2ccc(F)cc2)CCO1 (stereo unspecified) | -13.4% | 0.651 µM [falling, single point] | 0.517 µM [falling, single point]
38 | CC(=NCCN1CCCCC1)c1c(O)n(-c2ccc(Cl)cc2)c(=O)[nH]c1=O | -12% | 3.66 µM [falling, single point] | 6.51 µM [rising, single point]

Row | SMILES | cell number change | AC50 [1] | AC50 [2]
39 | O=c1[nH]c(CN2CC=C(c3ccccc3)CC2)nc2cc(C(F)(F)F)ccc12 | -0.106% | 3.66 µM [rising, partial curve] | –
40 | COc1ccc2c(c1)CC1(CN2C)C(=O)NC(=O)N(CCc2ccccc2)C1=O (stereo unspecified) | -36.7% | – | 7.31 µM [falling, partial curve]
41 | COc1cc2c(cc1OC)-c1c(OC)c(OC)c(OC)c3ccnc(c13)C2=O | 8.55% | 0.731 µM [rising, full curve] | –
42 | CN1C(=O)C(=Cc2sc(=O)n(-c3ccccc3)c2N(C)C)C(=O)N(C)C1=O | 6.08% | – | 2.31 µM [rising, partial curve]
43 | O=C(c1cc(-c2cccnc2)nc2ccccc12)N1CCC2(CC1)OCCO2 | 5.46% | 0.82 µM [falling, full curve] | –
44 | C=CCn1c(O)c(C(CC)=Nc2ccc(C(=O)O)cc2)c(=O)[nH]c1=O | 13.9% | 32.6 µM [rising, single point] | –
45 | Nc1ccc2c(c1)Cc1ccccc1-2 | -13.3% | 1.3 µM [falling, full curve, poor fit] | –
46 | Cc1ccccc1N1C(=O)CC(=O)NC1=O | 11.3% | 18.4 µM [rising, single point] | –
47 | CN(C)CC1Oc2ccccc2OC1(O)c1ccccc1 (stereo unspecified) | -58.2% | – | 4.61 µM [falling, full curve]
48 | COc1ccc(CN2C(=O)NC(=O)/C(=C\c3ccco3)C2=O)cc1 | – | 3.66 µM [falling, single point] | –
49 | Nc1ccc(Cl)cc1C(=O)c1ccccc1Cl | -34.2% | – | 14.6 µM [falling, single point]
50 | Cc1csc(NC(=O)C2CCCN(S(=O)(=O)c3ccc4c(c3)oc(=O)n4C)C2)n1 (stereo unspecified) | – | – | 0.164 µM [falling, full curve, poor fit]
51 | C#CCOCOCC#CCN(CC)CC | -12.3% | 6.51 µM [falling, single point] | 6.51 µM [falling, single point]
52 | CC(=O)O[C@H]1C(=O)[C@@]2(C)C([C@H](OC(=O)c3ccccc3)[C@]3(O)C[C@H](OC(=O)[C@H](O)[C@@H](NC(=O)Cc4ccccc4)c4ccccc4)C(C)=C1C3(C)C)[C@]1(OC(C)=O)CO[C@@H]1C[C@@H]2O (stereo partly specified) | -18.1% | 14.6 µM [falling, single point] | –
53 | O=C(Nc1cccc(Cl)c1)c1c(O)c2c(n(Cc3ccccc3)c1=O)CCCC2 | 6.34% | 2.06 µM [rising, partial curve] | –
54 | Cc1cccc(C(=O)Nc2ccc3c(c2)CC2(C(=O)N(C)C(=O)N(C)C2=O)C2CCCN32)c1 (stereo unspecified) | -20.1% | 6.51 µM [rising, single point] | –
55 | CC/C(=N\NC(N)=O)c1c(O)[nH]c(=O)[nH]c1=O | 8.97% | – | –
56 | CC(C)CC(=O)Nc1ccc(S(=O)(=O)N2CC3CC(C2)c2cccc(=O)n2C3)cc1 (stereo unspecified) | -2.09% | – | –
